Data taken from ChEMBL document CHEMBL3988442, “University of Dundee, Small-Polar-MMV Screening Library” (2021).

Results are given as percent effect. The record does not define 0% and 100%; most values in the screen are far below 50% and negative numbers occur (in some assays of this library far below -100). The compounds are a random part of those screened. Two or more numbers in one place are separate tests of the same structure; such repeats can differ widely.

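Phenotypic screen: M. tuberculosis growth, cholesterol and DPPC medium, 4 days; the read-out is not stated. Tested at 50 µM. Direction is inferred from retests: higher values go with more growth inhibition. About 69,000 compounds were tested under these conditions; 0.54% (about 370) showed 50% or more at least once.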

{"compound": "Cc1ccc(CN2CCCC3(CCN(S(C)(=O)=O)C3)C2)o1.O=C(O)C(F)(F)F", "stereo": "stereo not given", "percent effect": 0.09072}
{"compound": "O=C(Nc1cnc(N2CCOCC2)nc1)c1ccc(C(F)(F)F)cc1", "percent effect": 19.77}
{"compound": "CNc1nc(C)c(-c2nc(-c3c(C)ncc4c3CCNC4)no2)s1", "percent effect": 15.16}
{"compound": "CCOc1ccccc1OC1CCN(C(=O)c2csnn2)CC1", "percent effect": 4.098}
{"compound": "CC1CCN(C(=O)c2cn(-c3ccc(C(F)(F)F)cn3)nn2)CC1", "percent effect": 18.94}
{"compound": "CCOc1ccccc1NC(C)C(=O)N(C)Cc1cccc(F)c1", "stereo": "stereo not given", "percent effect": -12}
{"compound": "Cc1cnn(CCNc2ncnc3c2CCN(CC2CCOC2)CC3)c1", "stereo": "stereo not given", "percent effect": -3.875}
{"compound": "CN1CC(NC(=O)CCCc2cc(Cl)sc2Cl)CCC1=O", "stereo": "stereo not given", "percent effect": 8.3}
{"compound": "CCCn1nnc(NCc2cc(Br)cc(Br)c2OC)n1", "percent effect": -10.06}
{"compound": "Cc1cc(N2CCC(Cc3ccccc3)CC2)ncn1", "percent effect": -0.8174}
{"compound": "CNc1ncccc1CN1CCN2CCN(C)CC2C1", "stereo": "stereo not given", "percent effect": -22.84}
{"compound": "Cc1cc(CNC2CCCN(c3cccnn3)C2)no1", "stereo": "stereo not given", "percent effect": -34.29}
{"compound": "N[C@@H]1CCN(Cc2cc(-c3ccccc3OC(F)(F)F)no2)C[C@H]1O", "percent effect": 16.78}
{"compound": "O=C(O)C(F)(F)F.O=C(O)C(F)(F)F.[H][C@@]12CCCO[C@]1([H])[C@H](N(C)Cc1ccco1)CN2Cc1ccc(OC)cc1", "percent effect": -5.34}
{"compound": "Cc1cccc(OCCC(=O)N2CCN(CC(=O)NC3CC3)CC2)c1C", "percent effect": 11.05}
{"compound": "COC1CCN(C(=O)C2CCCC2)CC(=O)N(C)c2ccccc21", "stereo": "stereo not given", "percent effect": -16.85}
{"compound": "CNC(=O)N1CCC2(CC1)c1ncc(-c3cccc(F)c3)n1CCN2C.O=C(O)C(F)(F)F", "percent effect": 3.275}
{"compound": "O=C(CN1CCNC1=O)N1CCc2nnc(-c3ccccc3)n2CC1", "percent effect": -12.29}
{"compound": "Cc1cccc(N(C)S(=O)(=O)c2cc(C(=O)O)cs2)c1", "percent effect": -16.6}
{"compound": "CC(C)(C)n1ncc2c(=O)[nH]c(NC3CC=CC3)nc21", "percent effect": 3.343}
{"compound": "CCc1ccccc1NC(=O)c1cnn(C)c1C", "percent effect": 13.2}
{"compound": "CN(CC(N)=O)Cc1ccc(F)cc1Cl", "percent effect": -45.64}
{"compound": "Nc1ncccc1C(=O)NCc1cccc(Cl)c1", "percent effect": -25.68}
{"compound": "[H][C@@]12COC[C@]1(C(=O)NCc1ccco1)CN(Cc1nc(C)cs1)C2", "percent effect": "-58.84 and -6.822"}
{"compound": "Cc1cc(Cl)cc(C)c1CNC1CCN(CC(=O)N(C)C)CC1", "percent effect": 0.7569}
{"compound": "COc1cc(CNc2nc(C(F)(F)F)no2)cc(OC)c1OC", "percent effect": "15.85 and 10.51"}
{"compound": "CCN(Cc1cccc2c1OCO2)CC1CCCO1", "stereo": "stereo not given", "percent effect": 15.04}
{"compound": "Cc1ccc(C)c(C(O)CN(C)Cc2nnc3ccccn23)c1", "stereo": "stereo not given", "percent effect": 26.31}
{"compound": "CC(C)c1nc(/C=C/c2ccc(O)c(Cl)c2)ncc1C(=O)O", "percent effect": 2.843}
{"compound": "O=C(O)C(F)(F)F.[H][C@]12CCN(S(=O)(=O)c3cccs3)C[C@@]1([H])OCCN(C(C)C)C2", "percent effect": -10.98}
{"compound": "CC(C)(C)n1cc(C(=O)N2CCCN(Cc3cccs3)CC2)cn1", "percent effect": -14.5}
{"compound": "CNC(=O)CN(C)c1cncc(OCc2ccccc2)n1", "percent effect": 15.08}
{"compound": "COc1cccc(CN2CCCC(Nc3cccc(F)c3)C2)c1O", "stereo": "stereo not given", "percent effect": 47.3}
{"compound": "NC(=O)c1cccc(OCCC(=O)NC2CCc3c(F)cccc32)c1", "stereo": "stereo not given", "percent effect": 1.809}
{"compound": "O=C(c1cnn2cccnc12)N1CCCC(n2ccnc2)C1", "stereo": "stereo not given", "percent effect": -1.8}
{"compound": "[H][C@]12CCN(C(=O)NC(C)C)CC[C@@]1([H])S(=O)(=O)N(Cc1ccccc1)C2", "percent effect": -5.437}
{"compound": "CCc1nc(CN2CC(C(=O)OC)O[C@H](C)C2)cs1", "stereo": "stereo not given in full", "percent effect": 6.208}
{"compound": "CCOCC(=O)NCC(C)(O)c1cc(C)oc1C", "stereo": "stereo not given", "percent effect": 31.17}
{"compound": "Cc1cn2c(n1)CCC(NC(=O)c1[nH]ncc1Br)C2", "stereo": "stereo not given", "percent effect": 2.756}
{"compound": "Cc1noc(C)c1C(C)NC(=O)N1CCC(NC(=O)c2ccsc2)CC1", "stereo": "stereo not given", "percent effect": 1.06}
{"compound": "[H][C@@]12CCN(S(=O)(=O)c3ccccc3F)C[C@]1(C(=O)NC)CCO2", "percent effect": "-14.79 and 6.586"}

Once more, the final 2:

- Cc1noc(C)c1C(C)NC(=O)N1CCC(NC(=O)c2ccsc2)CC1 (stereo not given) | 1.06%
- [H][C@@]12CCN(S(=O)(=O)c3ccccc3F)C[C@]1(C(=O)NC)CCO2 | -14.79% and 6.586%